This is one part of the list.
Columns and labels:
Test in all cases: log2 fold change, soluble protein after heating vs DMSO (PISA); higher = thermal stabilisation; K562 cells, 10 uM, 30 min; active = over 0.2 and 3.5 SD of the protein, either way, in both replicates (recomputed)
[1] = compound: NC(=O)Nc1cc(-c2cccc(F)c2)sc1C(=O)N[C@H]1CCCNC1
In short: (§1)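 K562 cells at 2×10^6 cells/mL were given 10 μM compound for 30 min. Aliquots then went through 3 min of heating across 48°C-58°C, were pooled, and were extracted in PBS with 0.5% NP-40 at 4°C, and the supernatant after 21,000xg for 90 min was quantified by TMTpro 16plex LC-MS/MS with channel sums equalised. Thermal stability relative to control samples, from duplicates, is given as log2 fold change.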

By UniProt entry, the sequences of proteins in these tests, tags left out. Where a name states a change or a piece, a line headed by the entry shows the natural chain unless it says otherwise.
UniProt Q9ULP9: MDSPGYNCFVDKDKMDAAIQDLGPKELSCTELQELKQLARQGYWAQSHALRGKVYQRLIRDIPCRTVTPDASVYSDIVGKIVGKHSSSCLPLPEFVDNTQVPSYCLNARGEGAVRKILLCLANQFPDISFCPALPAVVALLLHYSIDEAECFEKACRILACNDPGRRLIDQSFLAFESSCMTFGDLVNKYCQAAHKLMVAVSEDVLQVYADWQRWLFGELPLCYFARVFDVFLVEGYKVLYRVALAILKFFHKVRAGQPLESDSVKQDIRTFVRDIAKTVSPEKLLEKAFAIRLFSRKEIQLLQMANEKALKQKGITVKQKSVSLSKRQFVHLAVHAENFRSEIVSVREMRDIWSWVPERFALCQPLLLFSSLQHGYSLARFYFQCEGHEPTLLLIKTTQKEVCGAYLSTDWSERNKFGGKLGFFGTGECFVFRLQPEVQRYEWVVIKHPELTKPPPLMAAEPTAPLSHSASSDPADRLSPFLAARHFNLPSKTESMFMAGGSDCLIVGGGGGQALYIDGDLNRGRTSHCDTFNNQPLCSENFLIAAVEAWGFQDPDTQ
UniProt Q07157: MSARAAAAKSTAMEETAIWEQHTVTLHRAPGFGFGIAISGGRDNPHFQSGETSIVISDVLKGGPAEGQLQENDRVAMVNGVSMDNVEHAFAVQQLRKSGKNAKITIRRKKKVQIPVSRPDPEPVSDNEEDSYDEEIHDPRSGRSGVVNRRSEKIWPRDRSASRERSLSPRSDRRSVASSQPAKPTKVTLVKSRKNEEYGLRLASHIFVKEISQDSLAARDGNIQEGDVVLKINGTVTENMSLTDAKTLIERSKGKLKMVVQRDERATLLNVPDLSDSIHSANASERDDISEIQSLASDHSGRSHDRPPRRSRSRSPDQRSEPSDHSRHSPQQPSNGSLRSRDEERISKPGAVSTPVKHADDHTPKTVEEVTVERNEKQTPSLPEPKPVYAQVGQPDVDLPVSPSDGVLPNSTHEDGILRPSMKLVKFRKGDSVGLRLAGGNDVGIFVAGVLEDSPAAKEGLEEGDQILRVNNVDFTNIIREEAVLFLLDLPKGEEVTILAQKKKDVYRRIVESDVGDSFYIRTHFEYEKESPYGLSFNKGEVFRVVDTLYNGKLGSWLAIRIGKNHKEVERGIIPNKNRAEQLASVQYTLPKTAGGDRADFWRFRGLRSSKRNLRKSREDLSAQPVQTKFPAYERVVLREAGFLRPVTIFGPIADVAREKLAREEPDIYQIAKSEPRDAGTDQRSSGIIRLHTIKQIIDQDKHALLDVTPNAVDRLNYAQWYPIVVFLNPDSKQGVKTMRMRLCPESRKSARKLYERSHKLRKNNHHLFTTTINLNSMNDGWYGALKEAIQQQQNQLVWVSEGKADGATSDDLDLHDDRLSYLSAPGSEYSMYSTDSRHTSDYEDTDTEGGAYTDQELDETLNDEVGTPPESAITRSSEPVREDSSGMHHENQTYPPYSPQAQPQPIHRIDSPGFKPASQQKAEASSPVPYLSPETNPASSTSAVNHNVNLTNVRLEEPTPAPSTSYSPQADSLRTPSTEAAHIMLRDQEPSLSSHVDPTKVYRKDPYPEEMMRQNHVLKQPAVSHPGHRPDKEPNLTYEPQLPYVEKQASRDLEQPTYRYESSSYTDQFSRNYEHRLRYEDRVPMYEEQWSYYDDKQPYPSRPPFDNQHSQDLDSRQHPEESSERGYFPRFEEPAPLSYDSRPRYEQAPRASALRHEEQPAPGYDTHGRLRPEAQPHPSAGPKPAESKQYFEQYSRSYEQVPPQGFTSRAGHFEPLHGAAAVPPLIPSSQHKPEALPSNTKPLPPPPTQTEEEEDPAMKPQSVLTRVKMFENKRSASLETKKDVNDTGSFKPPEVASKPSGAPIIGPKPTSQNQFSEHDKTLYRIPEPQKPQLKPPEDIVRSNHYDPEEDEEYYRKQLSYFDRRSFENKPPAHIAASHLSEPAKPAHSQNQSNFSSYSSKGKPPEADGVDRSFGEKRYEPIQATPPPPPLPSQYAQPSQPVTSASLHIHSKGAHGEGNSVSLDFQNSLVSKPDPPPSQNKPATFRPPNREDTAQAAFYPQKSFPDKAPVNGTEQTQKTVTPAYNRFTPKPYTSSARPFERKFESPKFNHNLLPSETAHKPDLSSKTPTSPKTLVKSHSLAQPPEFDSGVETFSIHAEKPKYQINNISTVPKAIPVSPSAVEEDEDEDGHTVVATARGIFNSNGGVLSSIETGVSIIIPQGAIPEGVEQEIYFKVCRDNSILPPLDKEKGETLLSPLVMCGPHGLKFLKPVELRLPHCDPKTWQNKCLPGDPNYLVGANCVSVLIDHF
UniProt P36897: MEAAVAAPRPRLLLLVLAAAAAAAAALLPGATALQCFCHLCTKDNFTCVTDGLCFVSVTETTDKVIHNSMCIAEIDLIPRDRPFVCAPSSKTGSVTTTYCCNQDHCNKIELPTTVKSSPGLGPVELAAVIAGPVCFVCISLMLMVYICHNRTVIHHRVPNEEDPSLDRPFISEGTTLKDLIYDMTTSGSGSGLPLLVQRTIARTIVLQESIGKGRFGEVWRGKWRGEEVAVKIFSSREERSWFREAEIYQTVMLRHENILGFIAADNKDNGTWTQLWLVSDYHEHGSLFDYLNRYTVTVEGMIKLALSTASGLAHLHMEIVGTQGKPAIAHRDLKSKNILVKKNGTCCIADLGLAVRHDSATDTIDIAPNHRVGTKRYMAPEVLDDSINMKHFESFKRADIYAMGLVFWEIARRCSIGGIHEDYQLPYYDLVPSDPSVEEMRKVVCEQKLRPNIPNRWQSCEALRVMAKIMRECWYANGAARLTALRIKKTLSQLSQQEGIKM
UniProt O14776: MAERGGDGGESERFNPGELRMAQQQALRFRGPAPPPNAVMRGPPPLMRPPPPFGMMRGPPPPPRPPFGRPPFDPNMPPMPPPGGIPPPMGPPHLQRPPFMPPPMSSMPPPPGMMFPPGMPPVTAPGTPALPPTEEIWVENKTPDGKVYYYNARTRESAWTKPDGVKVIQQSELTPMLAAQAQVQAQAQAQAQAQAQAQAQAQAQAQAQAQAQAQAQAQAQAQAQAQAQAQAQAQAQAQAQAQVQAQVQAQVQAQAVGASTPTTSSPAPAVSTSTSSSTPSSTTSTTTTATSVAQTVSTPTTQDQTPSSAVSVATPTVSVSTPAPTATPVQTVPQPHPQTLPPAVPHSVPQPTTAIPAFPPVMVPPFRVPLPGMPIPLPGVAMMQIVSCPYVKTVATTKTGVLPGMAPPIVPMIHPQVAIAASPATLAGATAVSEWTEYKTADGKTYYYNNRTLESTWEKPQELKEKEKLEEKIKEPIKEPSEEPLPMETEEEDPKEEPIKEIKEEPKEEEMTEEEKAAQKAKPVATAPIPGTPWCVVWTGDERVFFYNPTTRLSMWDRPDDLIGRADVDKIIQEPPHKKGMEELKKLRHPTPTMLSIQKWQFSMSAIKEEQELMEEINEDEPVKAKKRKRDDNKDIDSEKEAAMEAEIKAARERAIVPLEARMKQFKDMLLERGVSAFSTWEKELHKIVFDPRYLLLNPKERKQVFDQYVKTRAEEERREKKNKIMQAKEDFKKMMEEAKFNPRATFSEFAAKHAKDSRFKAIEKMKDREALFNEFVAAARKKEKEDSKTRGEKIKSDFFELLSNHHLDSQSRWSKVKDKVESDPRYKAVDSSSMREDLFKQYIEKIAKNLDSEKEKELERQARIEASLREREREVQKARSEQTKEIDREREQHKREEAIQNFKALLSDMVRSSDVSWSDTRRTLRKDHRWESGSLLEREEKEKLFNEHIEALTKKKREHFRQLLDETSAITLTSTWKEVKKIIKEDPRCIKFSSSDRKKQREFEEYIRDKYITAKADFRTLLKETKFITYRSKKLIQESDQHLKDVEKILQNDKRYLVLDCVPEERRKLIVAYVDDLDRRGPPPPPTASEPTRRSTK
UniProt P04183: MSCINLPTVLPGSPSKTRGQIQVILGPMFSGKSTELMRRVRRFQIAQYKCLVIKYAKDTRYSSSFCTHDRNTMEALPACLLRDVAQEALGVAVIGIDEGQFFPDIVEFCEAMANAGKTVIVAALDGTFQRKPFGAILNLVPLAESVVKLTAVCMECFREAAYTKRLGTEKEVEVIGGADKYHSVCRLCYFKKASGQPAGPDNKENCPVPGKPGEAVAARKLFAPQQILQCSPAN
UniProt Q01085: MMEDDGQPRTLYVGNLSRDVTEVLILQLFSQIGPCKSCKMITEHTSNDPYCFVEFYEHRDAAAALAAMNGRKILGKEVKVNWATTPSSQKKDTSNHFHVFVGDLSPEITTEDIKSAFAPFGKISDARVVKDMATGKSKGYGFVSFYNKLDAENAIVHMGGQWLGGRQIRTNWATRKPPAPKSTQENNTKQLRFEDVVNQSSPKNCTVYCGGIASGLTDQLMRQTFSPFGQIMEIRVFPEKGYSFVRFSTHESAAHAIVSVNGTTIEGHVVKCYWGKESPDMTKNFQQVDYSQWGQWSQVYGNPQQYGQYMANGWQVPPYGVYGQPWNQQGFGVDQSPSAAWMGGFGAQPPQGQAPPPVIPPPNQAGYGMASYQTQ
UniProt Q9P016: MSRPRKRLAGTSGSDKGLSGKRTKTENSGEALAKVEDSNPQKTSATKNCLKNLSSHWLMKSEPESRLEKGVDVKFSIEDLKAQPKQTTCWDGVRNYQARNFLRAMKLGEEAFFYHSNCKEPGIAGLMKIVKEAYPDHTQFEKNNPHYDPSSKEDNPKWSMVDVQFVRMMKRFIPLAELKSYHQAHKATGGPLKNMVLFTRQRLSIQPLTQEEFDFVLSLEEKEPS
UniProt Q15814: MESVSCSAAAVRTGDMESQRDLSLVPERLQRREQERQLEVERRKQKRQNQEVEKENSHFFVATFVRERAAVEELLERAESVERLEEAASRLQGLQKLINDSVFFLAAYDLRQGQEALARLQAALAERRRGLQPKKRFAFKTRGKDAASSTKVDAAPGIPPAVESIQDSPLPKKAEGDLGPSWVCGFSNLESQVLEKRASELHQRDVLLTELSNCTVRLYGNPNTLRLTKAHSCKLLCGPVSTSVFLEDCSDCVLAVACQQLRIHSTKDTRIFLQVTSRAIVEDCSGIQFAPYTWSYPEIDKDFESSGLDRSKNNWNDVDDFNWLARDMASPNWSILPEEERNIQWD
UniProt Q8IYQ7: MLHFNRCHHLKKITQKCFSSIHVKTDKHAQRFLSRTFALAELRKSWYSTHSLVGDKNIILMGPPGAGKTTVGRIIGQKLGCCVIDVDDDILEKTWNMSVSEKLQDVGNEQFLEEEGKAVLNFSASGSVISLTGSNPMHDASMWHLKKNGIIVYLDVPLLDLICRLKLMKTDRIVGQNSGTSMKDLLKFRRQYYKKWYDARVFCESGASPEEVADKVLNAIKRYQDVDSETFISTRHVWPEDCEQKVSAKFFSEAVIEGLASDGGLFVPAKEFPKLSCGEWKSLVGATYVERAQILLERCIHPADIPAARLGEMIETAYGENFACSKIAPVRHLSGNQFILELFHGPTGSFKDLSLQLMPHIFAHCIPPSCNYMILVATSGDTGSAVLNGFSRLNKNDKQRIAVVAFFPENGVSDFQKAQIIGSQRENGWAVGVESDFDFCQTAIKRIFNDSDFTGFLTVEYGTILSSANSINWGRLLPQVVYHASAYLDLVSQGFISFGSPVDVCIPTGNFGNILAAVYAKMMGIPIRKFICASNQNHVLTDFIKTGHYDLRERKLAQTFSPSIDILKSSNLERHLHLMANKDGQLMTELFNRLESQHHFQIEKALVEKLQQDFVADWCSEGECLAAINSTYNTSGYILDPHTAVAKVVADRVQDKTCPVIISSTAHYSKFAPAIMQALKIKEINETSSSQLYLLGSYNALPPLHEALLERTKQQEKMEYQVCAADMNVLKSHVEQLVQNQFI
UniProt Q92734, whole entry, looked up: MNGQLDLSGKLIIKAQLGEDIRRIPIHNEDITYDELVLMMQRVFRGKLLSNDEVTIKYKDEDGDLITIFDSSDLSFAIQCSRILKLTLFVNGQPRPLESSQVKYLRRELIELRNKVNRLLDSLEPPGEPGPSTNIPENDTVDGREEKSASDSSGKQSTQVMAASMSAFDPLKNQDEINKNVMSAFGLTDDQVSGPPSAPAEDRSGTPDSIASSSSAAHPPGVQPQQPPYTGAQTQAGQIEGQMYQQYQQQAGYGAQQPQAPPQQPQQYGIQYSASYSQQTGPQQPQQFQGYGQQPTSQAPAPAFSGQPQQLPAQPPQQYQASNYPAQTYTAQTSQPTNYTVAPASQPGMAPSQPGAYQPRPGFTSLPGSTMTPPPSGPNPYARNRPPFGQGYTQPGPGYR
UniProt Q86W42: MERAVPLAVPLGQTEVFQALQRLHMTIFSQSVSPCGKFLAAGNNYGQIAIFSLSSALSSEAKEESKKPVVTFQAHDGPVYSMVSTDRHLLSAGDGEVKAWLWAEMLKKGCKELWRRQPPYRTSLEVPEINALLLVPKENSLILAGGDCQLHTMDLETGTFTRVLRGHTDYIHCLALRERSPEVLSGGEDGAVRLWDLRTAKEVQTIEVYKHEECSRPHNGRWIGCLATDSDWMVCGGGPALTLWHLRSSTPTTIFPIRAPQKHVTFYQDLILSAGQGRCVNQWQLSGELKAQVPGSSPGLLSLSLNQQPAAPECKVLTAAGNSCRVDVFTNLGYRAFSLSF

[2] = compound: NC(=O)c1cnc(N[C@@H]2CCCC[C@@H]2N)nc1Nc1cccc(-n2nccn2)c1
In short: as §1

[3] = compound: NC1(c2ccc(-c3nc4ccn5c(=O)[nH]nc5c4cc3-c3ccccc3)cc2)CCC1
In short: as §1

[4] = compound: NCC(=O)Nc1ccc(-n2nc(C(F)(F)F)cc2-c2ccc3c(ccc4ccccc43)c2)cc1
In short: as §1

entinostat = compound: Nc1ccccc1NC(=O)c1ccc(CNC(=O)OCc2cccnc2)cc1 [entinostat]
In short: as §1

vorinostat = compound: O=C(CCCCCCC(=O)Nc1ccccc1)NO [vorinostat]
In short: as §1

citarinostat = compound: O=C(CCCCCCNC(=O)c1cnc(N(c2ccccc2)c2ccccc2Cl)nc1)NO [citarinostat]
In short: as §1

silmitasertib = compound: O=C(O)c1ccc2c(c1)nc(Nc1cccc(Cl)c1)c1ccncc12 [silmitasertib]
In short: as §1

[5] = compound: O=C1NC(=O)C(c2cnc3ccccn23)=C1c1cn2c3c(cc(F)cc13)CN(C(=O)N1CCCCC1)CC2
In short: as §1

[6] = compound: c1cc(OCCN2CCCCC2)cc(-c2n[nH]c3ccc(-c4nnc[nH]4)cc23)c1
In short: as §1

entospletinib = compound: c1cn2cc(-c3ccc4cn[nH]c4c3)nc(Nc3ccc(N4CCOCC4)cc3)c2n1 [entospletinib]
In short: as §1

Measured: log2 fold change

TBC1D24 (UniProt Q9ULP9)
inactive: [1] 0.047 | [2] -0.038 | [3] -0.091 | [4] -0.002 | entinostat 0.029 | vorinostat 0.291 | citarinostat 0.016 | silmitasertib -0.135 | [5] -0.082 | [6] -0.096

TJP1 (UniProt Q07157)
inactive: [1] -0.043 | [2] -0.067 | [3] 0.033 | [4] -0.071 | entinostat 0.044 | vorinostat 0.049 | citarinostat 0.041 | silmitasertib -0.158 | [5] -0.056 | [6] -0.092

TGFBR1 isoform 2 (UniProt P36897)
inactive: [1] 0.029 | [2] 0.072 | [3] -0.041 | [4] 0.002 | entinostat 0.093 | vorinostat -0.083 | citarinostat 0.017 | silmitasertib 0.073 | [5] -0.052 | [6] -0.054

TCERG1 (UniProt O14776)
inactive: [1] -0.026 | [2] -0.075 | [3] -0.123 | [4] -0.112 | entinostat 0.159 | vorinostat 0.129 | citarinostat 0.129 | silmitasertib 0.022 | [5] -0.153 | [6] 0

TK1 (UniProt P04183)
inactive: [1] 0.021 | [2] 0.018 | [3] 0.02 | [4] 0.031 | entinostat -0.068 | vorinostat -0.007 | citarinostat 0.016 | silmitasertib 0.013 | [5] -0.025 | [6] -0.027

Two successive entries from above, quoted:
TCERG1 (UniProt O14776)
inactive: [1] -0.026 | [2] -0.075 | [3] -0.123 | [4] -0.112 | entinostat 0.159 | vorinostat 0.129 | citarinostat 0.129 | silmitasertib 0.022 | [5] -0.153 | [6] 0

TK1 (UniProt P04183)
inactive: [1] 0.021 | [2] 0.018 | [3] 0.02 | [4] 0.031 | entinostat -0.068 | vorinostat -0.007 | citarinostat 0.016 | silmitasertib 0.013 | [5] -0.025 | [6] -0.027

Remaining list, next part

TFAM (UniProt Q00059)
inactive: [1] -0.079 | [2] -0.006 | [3] 0.085 | [4] 0.011 | entinostat -0.035 | vorinostat 0.005 | citarinostat -0.151 | silmitasertib 0.011 | [5] 0.06 | [6] -0.115

TIAL1 isoform 2 (UniProt Q01085)
inactive: [1] -0.014 | [2] -0.026 | [3] -0.05 | [4] -0.048 | entinostat -0.005 | vorinostat 0.025 | citarinostat -0.002 | silmitasertib -0.003 | [5] 0.003 | [6] -0.036

THYN1 (UniProt Q9P016)
inactive: [1] 0 | [2] -0.011 | [3] -0.048 | [4] -0.103 | entinostat -0.004 | vorinostat 0.011 | citarinostat 0.008 | silmitasertib -0.011 | [5] -0.022 | [6] -0.034

THUMPD1 (UniProt Q9NXG2)
inactive: [1] 0.026 | [2] -0.024 | [3] -0.016 | [4] -0.021 | entinostat -0.01 | vorinostat -0.002 | citarinostat 0.054 | silmitasertib -0.03 | [5] -0.03 | [6] -0.013 | entospletinib -0.013

TBCD (UniProt Q9BTW9)
inactive: [1] 0.003 | [2] -0.057 | [3] -0.146 | [4] -0.03 | entinostat 0.03 | vorinostat -0.013 | citarinostat 0.028 | silmitasertib 0.039 | [5] -0.001 | [6] -0.063

TBL2 (UniProt Q9Y4P3)
inactive: [1] 0.032 | [2] 0.039 | [3] 0.167 | [4] -0.036 | entinostat 0.052 | vorinostat -0.027 | citarinostat -0.039 | silmitasertib 0.197 | [5] 0.176 | [6] -0.107 | entospletinib 0.039

TBCC (UniProt Q15814)
inactive: [1] 0.033 | [2] -0.075 | [3] -0.072 | [4] -0.023 | entinostat 0.002 | vorinostat 0.01 | citarinostat 0.048 | silmitasertib 0.003 | [5] -0.045 | [6] 0.009 | entospletinib 0

TKFC (UniProt Q3LXA3)
inactive: [1] 0 | [2] -0.003 | [3] -0.027 | [4] 0.018 | entinostat -0.02 | vorinostat -0.077 | citarinostat 0.038 | silmitasertib -0.039 | [5] -0.063 | [6] 0.009 | entospletinib -0.01

TGFBR3 (UniProt Q03167)
inactive: [1] 0.001 | [2] -0.023 | [3] -0.011 | [4] -0.038 | entinostat -0.067 | vorinostat 0.049 | citarinostat 0.057 | silmitasertib 0.058 | [5] -0.062 | [6] -0.016 | entospletinib 0.003

TIMM17B (UniProt O60830)
inactive: [1] -0.008 | [2] 0.114 | [3] -0.003 | [4] 0.037 | entinostat -0.063 | vorinostat -0.092 | citarinostat 0.029 | silmitasertib 0.037 | [5] -0.008 | [6] -0.019 | entospletinib 0.013

TCEA1 (UniProt P23193)
inactive: [1] -0.005 | [2] -0.023 | [3] -0.029 | [4] -0.014 | entinostat 0.035 | vorinostat 0.016 | citarinostat 0.008 | silmitasertib -0.023 | [5] -0.012 | [6] -0.022 | entospletinib -0.012

TBCE (UniProt Q15813)
inactive: [1] -0.02 | [2] -0.094 | [3] 0.015 | [4] -0.075 | entinostat 0.054 | vorinostat 0.125 | citarinostat 0.008 | silmitasertib 0.179 | [5] 0.146 | [6] -0.115 | entospletinib 0.112

TIPIN (UniProt Q9BVW5)
inactive: [1] 0.003 | [2] -0.093 | [3] -0.008 | [4] -0.053 | entinostat -0.025 | vorinostat -0.034 | citarinostat 0.029 | silmitasertib 0.067 | [5] -0.065 | [6] -0.026 | entospletinib -0.06

THNSL1 (UniProt Q8IYQ7)
inactive: [1] -0.024 | [2] -0.026 | [3] -0.094 | [4] 0.009 | entinostat -0.016 | vorinostat 0.033 | citarinostat -0.045 | silmitasertib -0.016 | [5] -0.025 | [6] -0.056 | entospletinib 0.09

TFG (UniProt Q92734)
inactive: [1] -0.022 | [2] 0.024 | [3] -0.011 | [4] 0.007 | entinostat -0.009 | vorinostat -0.024 | citarinostat 0.035 | silmitasertib 0 | [5] -0.026 | [6] -0.067 | entospletinib -0.054

TIMM8A (UniProt O60220)
inactive: [1] 0.072 | [2] 0.096 | [3] 0.033 | [4] 0.062 | entinostat 0.133 | vorinostat -0.153 | citarinostat -0.007 | silmitasertib -0.071 | [5] 0.018 | [6] 0.115 | entospletinib 0.052

THOC7 (UniProt Q6I9Y2)
inactive: [1] -0.025 | [2] 0.005 | [3] 0.032 | [4] -0.088 | entinostat 0.013 | vorinostat -0.006 | citarinostat 0.038 | silmitasertib 0.046 | [5] -0.058 | [6] -0.062 | entospletinib -0.055

TBC1D4 (UniProt O60343)
inactive: [1] -0.032 | [2] -0.068 | [3] -0.089 | [4] 0.013 | entinostat 0.026 | vorinostat 0.031 | citarinostat -0.004 | silmitasertib 0.057 | [5] 0.081 | [6] -0.011 | entospletinib -0.007

TESC (UniProt Q96BS2)
inactive: [1] -0.059 | [2] -0.073 | [3] -0.003 | [4] 0.036 | entinostat -0.003 | vorinostat 0.04 | citarinostat 0.025 | silmitasertib 0.318 | [5] -0.088 | [6] -0.043 | entospletinib -0.044

THOC2 (UniProt Q8NI27)
inactive: [1] 0.039 | [2] 0.018 | [3] 0.043 | [4] -0.083 | entinostat 0.01 | vorinostat 0.002 | citarinostat 0.042 | silmitasertib 0.093 | [5] 0.029 | [6] -0.253 | entospletinib -0.034

THOC6 (UniProt Q86W42)
inactive: [1] -0.02 | [2] -0.021 | [3] 0.001 | [4] -0.032 | entinostat -0.029 | vorinostat 0.018 | citarinostat 0.042 | silmitasertib -0.007 | [5] -0.074 | [6] -0.056 | entospletinib -0.028

THOC5 (UniProt Q13769)
inactive: [1] 0.002 | [2] -0.058 | [3] 0.051 | [4] -0.055 | entinostat -0.019 | vorinostat -0.007 | citarinostat -0.035 | silmitasertib 0.081 | [5] -0.05 | [6] -0.04 | entospletinib 0.022

THBS4 (UniProt P35443)
inactive: [1] -0.013 | [2] 0.022 | [3] 0.007 | [4] -0.062 | entinostat -0.038 | vorinostat 0.015 | citarinostat -0.126 | silmitasertib 0.216 | [5] 0.06 | [6] 0.207 | entospletinib 0.135
